# Results are given in words; binding and its absence hold for the method and conditions named. Binding seen in cells or lysates may run through a third protein. Here binding means that the protein was enriched with, or labelled near, the bait; the list need not be complete.
# Sequences of proteins named here, by UniProt entry; tags and fusion partners are left off. A change or cut given only in a name is not applied to a line headed by its entry.
# UniProt Q9NX00: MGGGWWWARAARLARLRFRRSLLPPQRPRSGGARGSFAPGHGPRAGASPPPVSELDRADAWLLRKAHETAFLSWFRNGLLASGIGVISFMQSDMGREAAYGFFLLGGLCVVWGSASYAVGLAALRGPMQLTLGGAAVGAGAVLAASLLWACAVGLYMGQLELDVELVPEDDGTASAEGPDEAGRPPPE
# Target: Transmembrane protein 160 (TMEM160) (human (endogenous in A549)) (UniProt Q9NX00)
# Assay: affinity purification with mass spectrometry; endogenous TMEM160 immunoprecipitated from A549 lysate (NP40 lysis buffer with 0.5% CHAPS) with anti-TMEM160 antibody cross-linked (BS3) to protein A/G agarose beads, overnight at 4 °C; negative control without antibody; eluate analysed by LC-MS/MS (DIA)
row,binding,Molecule
1,binds,importin KPNA6 (from UniProt O60684 1-536)
2,binds,"nucleoporin NUP50 (protein, UniProt Q9UKX7 1-468) MAKRNAEKELTDRNWDQEDEAEEVGTFSMASEEVLKNRAIKKAKRRNVGFESDTGGAFKGFKGLVVPSGGGRFSGFGSGAGGKPLEGLSNGNNITSAPPFASAKAAADPKVAFGSLAANGPTTLVDKVSNPKTNGDSQQPSSSGLASSKACVGNAYHKQLAALNCSVRDWIVKHVNTNPLCDLTPIFKDYEKYLANIEQQHGNSGRNSESESNKVAAETQSPSLFGSTKLQQESTFLFHGNKTEDTPDKKMEVASEKKTDPSSLGATSASFNFGKKVDSSVLGSLSSVPLTGFSFSPGNSSLFGKDTTQSKPVSSPFPTKPLEGQAEGDSGECKGGDEEENDEPPKVVVTEVKEEDAFYSKKCKLFYKKDNEFKEKGIGTLHLKPTANQKTQLLVRADTNLGNILLNVLIPPNMPCTRTGKNNVLIVCVPNPPIDEKNATMPVTMLIRVKTSEDADELHKILLEKKDA"
3,binds,"SRRM1 (protein, UniProt Q8IYB3 1-904) MDAGFFRGTSAEQDNRFSNKQKKLLKQLKFAECLEKKVDMSKVNLEVIKPWITKRVTEILGFEDDVVIEFIFNQLEVKNPDSKMMQINLTGFLNGKNAREFMGELWPLLLSAQENIAGIPSAFLELKKEEIKQRQIEQEKLASMKKQDEDKDKRDKEEKESSREKRERSRSPRRRKSRSPSPRRRSSPVRRERKRSHSRSPRHRTKSRSPSPAPEKKEKTPELPEPSVKVKEPSVQEATSTSDILKVPKPEPIPEPKEPSPEKNSKKEKEKEKTRPRSRSRSKSRSRTRSRSPSHTRPRRRHRSRSRSYSPRRRPSPRRRPSPRRRTPPRRMPPPPRHRRSRSPVRRRRRSSASLSGSSSSSSSSRSRSPPKKPPKRTSSPPRKTRRLSPSASPPRRRHRPSPPATPPPKTRHSPTPQQSNRTRKSRVSVSPGRTSGKVTKHKGTEKRESPSPAPKPRKVELSESEEDKGGKMAAADSVQQRRQYRRQNQQSSSDSGSSSSSEDERPKRSHVKNGEVGRRRRHSPSRSASPSPRKRQKETSPRGRRRRSPSPPPTRRRRSPSPAPPPRRRRTPTPPPRRRTPSPPPRRRSPSPRRYSPPIQRRYSPSPPPKRRTASPPPPPKRRASPSPPPKRRVSHSPPPKQRSSPVTKRRSPSLSSKHRKGSSPSRSTREARSPQPNKRHSPSPRPRAPQTSSSPPPVRRGASSSPQRRQSPSPSTRPIRRVSRTPEPKKIKKAASPSPQSVRRVSSSRSVSGSPEPAAKKPPAPPSPVQSQSPSTNWSPAVPVKKAKSPTPSPSPPRNSDQEGGGKKKKKKKDKKHKKDKKHKKHKKHKKEKAVAAAAAAAVTPAAIAAATTTLAQEEPVAAPEPKKETESEAEDNLDDLEKHLREKALRSMRKAQVSPQS"
